Results are given in words; binding and its absence hold for the method and conditions named. In cells and extracts the contact can be indirect. Some results given as binding are weak or reduced against the parent protein; the word gives no strength.
What was measured:
[1] = target: histone acetyltransferase P300 (human (endogenous in adipose-derived MSCs and CAFs)) (UniProt Q09472); assay: co-IP; immunoprecipitation kit (ab206996, Abcam); antibodies to endogenous NF-κB P65, PKM2 or P300, IgG isotype control; whole-cell lysates of MSCs and of CAFs (AGS exosome treated); western blot
[2] = target: NF-κB P65 (human (endogenous in adipose-derived MSCs and CAFs)) (UniProt Q04206); assay: as above
[3] = target: NF-κB P65 (human (endogenous in adipose-derived MSCs and CAFs)) (UniProt Q04206); assay: co-IP; co-IP from purified nuclear proteins of the cells (Supplementary Fig. 6); immunoprecipitation kit (ab206996, Abcam)
[4] = target: M2 pyruvate kinase (PKM2) (human (endogenous in adipose-derived MSCs and CAFs)) (UniProt P14618); assay: co-IP; immunoprecipitation kit (ab206996, Abcam); antibodies to endogenous NF-κB P65, PKM2 or P300, IgG isotype control; whole-cell lysates of MSCs and of CAFs (AGS exosome treated); western blot

Sequences of proteins named here, by UniProt entry; tags and fusion partners are left off.
UniProt Q09472: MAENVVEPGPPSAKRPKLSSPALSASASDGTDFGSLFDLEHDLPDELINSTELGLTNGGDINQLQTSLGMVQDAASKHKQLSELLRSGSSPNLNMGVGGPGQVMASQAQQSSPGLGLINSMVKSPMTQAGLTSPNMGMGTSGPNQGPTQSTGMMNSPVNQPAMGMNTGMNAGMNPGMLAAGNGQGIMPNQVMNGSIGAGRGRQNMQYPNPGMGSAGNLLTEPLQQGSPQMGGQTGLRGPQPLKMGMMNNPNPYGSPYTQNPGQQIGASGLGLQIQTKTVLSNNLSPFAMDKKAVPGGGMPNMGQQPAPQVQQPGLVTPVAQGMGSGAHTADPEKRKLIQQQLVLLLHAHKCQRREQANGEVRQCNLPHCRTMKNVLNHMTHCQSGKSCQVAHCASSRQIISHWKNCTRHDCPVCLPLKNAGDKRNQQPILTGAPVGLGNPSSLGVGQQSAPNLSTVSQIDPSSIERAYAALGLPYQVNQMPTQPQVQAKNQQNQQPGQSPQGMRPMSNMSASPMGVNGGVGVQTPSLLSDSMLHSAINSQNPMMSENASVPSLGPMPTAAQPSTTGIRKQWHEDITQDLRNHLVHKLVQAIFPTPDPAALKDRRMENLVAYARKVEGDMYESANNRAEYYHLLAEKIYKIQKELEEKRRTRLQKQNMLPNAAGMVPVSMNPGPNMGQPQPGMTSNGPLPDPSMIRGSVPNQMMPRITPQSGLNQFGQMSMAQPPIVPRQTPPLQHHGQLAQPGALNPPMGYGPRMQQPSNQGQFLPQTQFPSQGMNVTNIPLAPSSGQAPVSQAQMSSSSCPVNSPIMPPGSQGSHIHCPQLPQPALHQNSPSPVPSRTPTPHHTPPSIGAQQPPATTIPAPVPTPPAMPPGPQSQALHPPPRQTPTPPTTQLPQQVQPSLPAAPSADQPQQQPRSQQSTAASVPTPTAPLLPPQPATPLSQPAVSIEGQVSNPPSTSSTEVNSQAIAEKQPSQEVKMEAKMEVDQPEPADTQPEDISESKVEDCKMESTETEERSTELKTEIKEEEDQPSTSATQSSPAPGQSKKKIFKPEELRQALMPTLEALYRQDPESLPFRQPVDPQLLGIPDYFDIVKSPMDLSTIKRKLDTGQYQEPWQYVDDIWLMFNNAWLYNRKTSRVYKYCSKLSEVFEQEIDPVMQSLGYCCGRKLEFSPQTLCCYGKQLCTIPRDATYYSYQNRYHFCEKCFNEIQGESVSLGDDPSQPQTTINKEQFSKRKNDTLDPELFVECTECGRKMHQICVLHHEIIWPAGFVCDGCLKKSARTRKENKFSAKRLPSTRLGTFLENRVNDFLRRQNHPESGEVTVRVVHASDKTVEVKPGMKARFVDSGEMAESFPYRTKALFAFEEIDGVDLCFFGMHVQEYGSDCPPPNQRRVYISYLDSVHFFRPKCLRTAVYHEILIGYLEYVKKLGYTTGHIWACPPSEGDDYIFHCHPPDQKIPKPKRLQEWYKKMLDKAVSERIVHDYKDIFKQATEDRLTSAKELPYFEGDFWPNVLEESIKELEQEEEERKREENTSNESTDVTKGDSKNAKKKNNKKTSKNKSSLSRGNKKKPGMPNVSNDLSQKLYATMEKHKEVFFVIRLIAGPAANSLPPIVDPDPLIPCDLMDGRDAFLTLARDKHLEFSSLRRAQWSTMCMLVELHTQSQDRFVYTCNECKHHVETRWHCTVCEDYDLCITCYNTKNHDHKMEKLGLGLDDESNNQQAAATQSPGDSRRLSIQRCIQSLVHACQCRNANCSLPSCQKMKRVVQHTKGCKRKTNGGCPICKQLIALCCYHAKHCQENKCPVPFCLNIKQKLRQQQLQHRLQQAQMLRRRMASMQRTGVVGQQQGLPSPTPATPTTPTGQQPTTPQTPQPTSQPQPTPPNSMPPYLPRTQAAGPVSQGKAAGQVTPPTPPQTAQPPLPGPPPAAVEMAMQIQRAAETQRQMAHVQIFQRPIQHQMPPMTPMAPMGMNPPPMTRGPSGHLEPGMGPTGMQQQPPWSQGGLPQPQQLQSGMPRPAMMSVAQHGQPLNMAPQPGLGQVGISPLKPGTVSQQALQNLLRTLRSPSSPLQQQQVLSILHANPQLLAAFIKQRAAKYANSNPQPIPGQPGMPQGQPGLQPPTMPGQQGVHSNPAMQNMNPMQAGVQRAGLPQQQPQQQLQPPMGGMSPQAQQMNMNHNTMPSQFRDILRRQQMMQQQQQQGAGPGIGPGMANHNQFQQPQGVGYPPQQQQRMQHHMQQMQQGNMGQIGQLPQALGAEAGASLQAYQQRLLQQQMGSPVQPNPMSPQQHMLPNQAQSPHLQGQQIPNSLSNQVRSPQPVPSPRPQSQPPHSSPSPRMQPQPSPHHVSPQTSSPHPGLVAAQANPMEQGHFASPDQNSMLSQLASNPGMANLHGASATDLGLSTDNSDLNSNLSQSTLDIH
UniProt Q04206: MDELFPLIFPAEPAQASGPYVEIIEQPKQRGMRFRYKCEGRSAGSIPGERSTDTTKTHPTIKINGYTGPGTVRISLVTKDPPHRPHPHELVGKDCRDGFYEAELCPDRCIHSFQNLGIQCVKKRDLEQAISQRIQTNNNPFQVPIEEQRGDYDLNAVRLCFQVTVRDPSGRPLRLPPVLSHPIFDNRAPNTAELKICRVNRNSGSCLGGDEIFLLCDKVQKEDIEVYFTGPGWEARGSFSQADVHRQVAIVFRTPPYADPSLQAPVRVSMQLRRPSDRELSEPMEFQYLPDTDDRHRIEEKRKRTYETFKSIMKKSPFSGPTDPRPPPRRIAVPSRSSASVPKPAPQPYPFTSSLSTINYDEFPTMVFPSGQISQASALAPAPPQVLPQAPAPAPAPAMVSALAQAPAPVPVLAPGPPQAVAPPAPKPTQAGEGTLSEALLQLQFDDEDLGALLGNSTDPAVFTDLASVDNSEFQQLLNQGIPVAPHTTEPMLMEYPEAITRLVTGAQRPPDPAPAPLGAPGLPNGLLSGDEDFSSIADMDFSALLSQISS
UniProt P14618: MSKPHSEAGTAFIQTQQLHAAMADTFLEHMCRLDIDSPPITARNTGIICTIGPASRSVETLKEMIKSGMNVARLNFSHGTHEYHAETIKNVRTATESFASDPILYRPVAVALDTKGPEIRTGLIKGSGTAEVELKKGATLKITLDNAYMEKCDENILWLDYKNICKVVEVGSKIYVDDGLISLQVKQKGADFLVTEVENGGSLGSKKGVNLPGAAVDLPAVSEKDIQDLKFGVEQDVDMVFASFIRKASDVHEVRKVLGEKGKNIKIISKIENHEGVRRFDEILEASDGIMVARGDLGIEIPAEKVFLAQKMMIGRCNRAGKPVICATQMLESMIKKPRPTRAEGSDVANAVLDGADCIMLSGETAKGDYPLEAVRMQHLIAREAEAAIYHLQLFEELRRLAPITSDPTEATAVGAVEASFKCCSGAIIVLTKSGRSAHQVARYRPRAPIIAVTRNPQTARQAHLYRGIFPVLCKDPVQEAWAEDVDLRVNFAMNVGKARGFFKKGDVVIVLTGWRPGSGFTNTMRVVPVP

binding [1] | binding [2] | binding [3] | binding [4] | Substance
binds | binds | binds | – | M2 pyruvate kinase (PKM2) (from UniProt P14618 1-531) (enzyme)
– | – | – | binds | NF-κB P65 (from UniProt Q04206 1-551)

Reference: PMC7969736
